At least one compound was matched to its structure with a doubt left.
Experiments:
sheep platelet PLA2 = assay: Micromolar Calcium-Dependent PLA2 Assay (sheep platelet cytosolic PLA2); type: biochemical; conditions: pH 7.2, 1 μM CaCl2, 1 μM substrate, 10 min at 37° C.
From the text: Specifically, one micromolar calcium-dependent mammalian PLA2 assay was used, i.e., sheep platelet PLA2, and two millimolar calcium-dependent mammalian PLA2 assays were used, i.e., human synovial fluid PLA2 and porcine pancreatic PLA2. The PLA2 enzymes represent different groups of PLA2 enzymes. Myocardial PLA2, platelet PLA2 and secreted PLA2 enzymes (human synovial fluid PLA2 and porcine pancreatic PLA2) have very different calcium requirements, which may be typical of their respective classes.
Micromolar Calcium-Dependent PLA2 Assay
Homogeneous sheep platelet cytosolic PLA2 was prepared as described by Loeb, L. A., and Gross, R. W., J. Biol. Chem., 261, 10467-10470 (1986). The purified calcium-dependent platelet PLA2 was preincubated in 70 mM Tris-Cl (pH 7.2) containing 1 μM CaCl2 and test compound for 5 min. at 25° C. Catalysis was initiated by injection of 1 μM radiolabeled substrate (1-O-(Z)-(1'-hexadecenyl)-2-[9,10^-3 H]-oleoyl-3-phosphorylcholine). After a 10 min. incubation period at 37° C., reaction products were extracted with n-butanol, separated by thin layer chromatography, and quantified by scintillation spectrometry. PLA2 activity was compared in the presence and absence of test compound and the IC50 was determined. […]

[1] = tested on: purified calcium-independent canine myocardial PLA2; assay: Calcium-Independent PLA2 Assay (purified canine myocardial cytosolic PLA2, release of radiolabeled oleic acid); type: biochemical; conditions: pH 7.0, 6.4 mM EGTA, 1 μM substrate, 5 min at 37° C., read-out: IC50 Canine Heart PLA2
Protocol: This assay consists of determining the amount of radiolabeled fatty acid which is liberated from the radiolabeled phospholipid substrate by purified calcium-independent canine myocardial PLA2 in the presence of varying concentrations of the inhibitor. The concentration of inhibitor which decreases the activity of the enzyme to 50% of the activity observed in the absence of that inhibitor is determined. This concentration is defined as the IC50.
Calcium-Independent PLA2 Assay
Purified canine myocardial cytosolic PLA2 was isolated from an ATP-agarose eluate as described by Wolf, R. A., and Gross, R. W., J. Biol. Chem., 260, 7295-7303 (1985). The calcium-independent myocardial PLA2 was incubated with selected concentrations (10^-10 to 10^-4 M) of test compound in 168 mM Tris-Cl, 6.4 mM EGTA (a calcium chelator) (pH 7.0) for 5 min. at 25° C. Appropriate controls were performed in the absence of test compound. Catalysis was initiated by injection of 1 μM radiolabeled substrate (1-O-(Z)-(1'-hexadecenyl)-2-[9,10^-3 H]-oleoyl-3-phosphorylcholine). After a 5 min. incubation at 37° C., reaction products were extracted with n-butanol, separated by thin layer chromatography, and quantified by scintillation spectrometry. PLA2 activity was compared in the presence and absence of test compound and the IC50 was determined.

ischemic cat heart = ischemic cat heart in vivo; Corr et al 1989 (cited); cited from earlier work

Row | Compound | IC50 (sheep platelet PLA2) [µM] | IC50 [1] [µM] | accumulation of lysophospholipids (and long-chain acylcarnitines) (ischemic cat heart) | onset of ventricular fibrillation and ventricular tachycardia (ischemic cat heart)
1 | CCCCCCCCCCCC#Cc1ccccc1/C=C(\C(=O)OCC)P(=O)(O)O [Example 6, Ethyl E-2-phosphono-3-[2-(1-tridecynyl)phenyl]propenoate] | 1.4 | 5.6 | – | –
2 | O=C(O)C1(CCCCCc2ccc(Cl)cc2)CO1 (stereo not shown) [POCA, 2-[5-(4-chlorophenyl)-pentyl]-oxirane-2-carboxylate] | – | – | inhibits the accumulation of lysophospholipids (and long-chain acylcarnitines) | prevents the onset of ventricular fibrillation and ventricular tachycardia

Reference: patent US5648349A, “PLA2 inhibitors” (Monsanto Company, priority 1995, dated 1997)
